According to the supplement of paper PMC6411743:
± gives the standard deviation of the averaged measurements. This is a selection; strong and weak results do not stand in their true shares.

Chains of the proteins cited; added tags and fusions are not shown. Lines headed by an entry give the natural chain unless they say otherwise; changes in a name come on top.
UniProt P41229: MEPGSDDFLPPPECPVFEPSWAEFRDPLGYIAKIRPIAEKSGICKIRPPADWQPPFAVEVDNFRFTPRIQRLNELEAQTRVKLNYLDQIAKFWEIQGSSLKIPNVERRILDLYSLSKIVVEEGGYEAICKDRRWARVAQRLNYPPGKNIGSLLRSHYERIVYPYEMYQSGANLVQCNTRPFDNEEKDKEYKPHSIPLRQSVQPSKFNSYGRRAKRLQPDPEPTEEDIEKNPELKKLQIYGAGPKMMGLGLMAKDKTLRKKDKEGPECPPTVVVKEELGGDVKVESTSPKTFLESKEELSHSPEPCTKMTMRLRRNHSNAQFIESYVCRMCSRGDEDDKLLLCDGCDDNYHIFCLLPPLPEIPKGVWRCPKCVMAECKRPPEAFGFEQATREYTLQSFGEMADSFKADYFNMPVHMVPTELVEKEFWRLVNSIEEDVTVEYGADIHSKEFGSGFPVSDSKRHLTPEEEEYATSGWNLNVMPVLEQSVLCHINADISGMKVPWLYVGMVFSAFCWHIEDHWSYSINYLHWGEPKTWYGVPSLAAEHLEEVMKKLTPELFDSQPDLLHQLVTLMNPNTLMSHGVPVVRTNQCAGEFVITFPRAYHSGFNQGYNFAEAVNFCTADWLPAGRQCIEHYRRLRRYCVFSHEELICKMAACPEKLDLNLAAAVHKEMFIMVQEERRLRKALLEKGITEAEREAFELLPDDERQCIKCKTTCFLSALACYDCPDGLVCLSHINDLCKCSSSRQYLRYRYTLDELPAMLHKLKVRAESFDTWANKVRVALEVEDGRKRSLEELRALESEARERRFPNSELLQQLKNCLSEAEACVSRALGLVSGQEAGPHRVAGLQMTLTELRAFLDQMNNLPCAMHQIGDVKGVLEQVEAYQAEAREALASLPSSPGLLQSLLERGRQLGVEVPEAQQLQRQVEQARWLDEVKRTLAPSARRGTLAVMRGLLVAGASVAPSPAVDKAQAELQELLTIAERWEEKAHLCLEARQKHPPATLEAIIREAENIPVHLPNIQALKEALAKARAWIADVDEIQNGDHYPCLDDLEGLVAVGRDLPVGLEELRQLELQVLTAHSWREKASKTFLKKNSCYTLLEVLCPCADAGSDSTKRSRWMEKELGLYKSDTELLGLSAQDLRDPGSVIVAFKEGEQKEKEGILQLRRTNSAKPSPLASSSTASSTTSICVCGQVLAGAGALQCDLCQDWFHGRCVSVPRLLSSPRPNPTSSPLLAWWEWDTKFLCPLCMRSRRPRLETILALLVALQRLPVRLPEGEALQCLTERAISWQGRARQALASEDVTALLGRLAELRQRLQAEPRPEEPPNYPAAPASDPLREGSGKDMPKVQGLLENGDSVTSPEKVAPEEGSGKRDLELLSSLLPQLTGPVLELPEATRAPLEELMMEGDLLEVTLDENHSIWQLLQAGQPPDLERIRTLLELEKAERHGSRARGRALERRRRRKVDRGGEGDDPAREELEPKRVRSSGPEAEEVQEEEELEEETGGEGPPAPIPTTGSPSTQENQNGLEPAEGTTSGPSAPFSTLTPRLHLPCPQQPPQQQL
UniProt P50748: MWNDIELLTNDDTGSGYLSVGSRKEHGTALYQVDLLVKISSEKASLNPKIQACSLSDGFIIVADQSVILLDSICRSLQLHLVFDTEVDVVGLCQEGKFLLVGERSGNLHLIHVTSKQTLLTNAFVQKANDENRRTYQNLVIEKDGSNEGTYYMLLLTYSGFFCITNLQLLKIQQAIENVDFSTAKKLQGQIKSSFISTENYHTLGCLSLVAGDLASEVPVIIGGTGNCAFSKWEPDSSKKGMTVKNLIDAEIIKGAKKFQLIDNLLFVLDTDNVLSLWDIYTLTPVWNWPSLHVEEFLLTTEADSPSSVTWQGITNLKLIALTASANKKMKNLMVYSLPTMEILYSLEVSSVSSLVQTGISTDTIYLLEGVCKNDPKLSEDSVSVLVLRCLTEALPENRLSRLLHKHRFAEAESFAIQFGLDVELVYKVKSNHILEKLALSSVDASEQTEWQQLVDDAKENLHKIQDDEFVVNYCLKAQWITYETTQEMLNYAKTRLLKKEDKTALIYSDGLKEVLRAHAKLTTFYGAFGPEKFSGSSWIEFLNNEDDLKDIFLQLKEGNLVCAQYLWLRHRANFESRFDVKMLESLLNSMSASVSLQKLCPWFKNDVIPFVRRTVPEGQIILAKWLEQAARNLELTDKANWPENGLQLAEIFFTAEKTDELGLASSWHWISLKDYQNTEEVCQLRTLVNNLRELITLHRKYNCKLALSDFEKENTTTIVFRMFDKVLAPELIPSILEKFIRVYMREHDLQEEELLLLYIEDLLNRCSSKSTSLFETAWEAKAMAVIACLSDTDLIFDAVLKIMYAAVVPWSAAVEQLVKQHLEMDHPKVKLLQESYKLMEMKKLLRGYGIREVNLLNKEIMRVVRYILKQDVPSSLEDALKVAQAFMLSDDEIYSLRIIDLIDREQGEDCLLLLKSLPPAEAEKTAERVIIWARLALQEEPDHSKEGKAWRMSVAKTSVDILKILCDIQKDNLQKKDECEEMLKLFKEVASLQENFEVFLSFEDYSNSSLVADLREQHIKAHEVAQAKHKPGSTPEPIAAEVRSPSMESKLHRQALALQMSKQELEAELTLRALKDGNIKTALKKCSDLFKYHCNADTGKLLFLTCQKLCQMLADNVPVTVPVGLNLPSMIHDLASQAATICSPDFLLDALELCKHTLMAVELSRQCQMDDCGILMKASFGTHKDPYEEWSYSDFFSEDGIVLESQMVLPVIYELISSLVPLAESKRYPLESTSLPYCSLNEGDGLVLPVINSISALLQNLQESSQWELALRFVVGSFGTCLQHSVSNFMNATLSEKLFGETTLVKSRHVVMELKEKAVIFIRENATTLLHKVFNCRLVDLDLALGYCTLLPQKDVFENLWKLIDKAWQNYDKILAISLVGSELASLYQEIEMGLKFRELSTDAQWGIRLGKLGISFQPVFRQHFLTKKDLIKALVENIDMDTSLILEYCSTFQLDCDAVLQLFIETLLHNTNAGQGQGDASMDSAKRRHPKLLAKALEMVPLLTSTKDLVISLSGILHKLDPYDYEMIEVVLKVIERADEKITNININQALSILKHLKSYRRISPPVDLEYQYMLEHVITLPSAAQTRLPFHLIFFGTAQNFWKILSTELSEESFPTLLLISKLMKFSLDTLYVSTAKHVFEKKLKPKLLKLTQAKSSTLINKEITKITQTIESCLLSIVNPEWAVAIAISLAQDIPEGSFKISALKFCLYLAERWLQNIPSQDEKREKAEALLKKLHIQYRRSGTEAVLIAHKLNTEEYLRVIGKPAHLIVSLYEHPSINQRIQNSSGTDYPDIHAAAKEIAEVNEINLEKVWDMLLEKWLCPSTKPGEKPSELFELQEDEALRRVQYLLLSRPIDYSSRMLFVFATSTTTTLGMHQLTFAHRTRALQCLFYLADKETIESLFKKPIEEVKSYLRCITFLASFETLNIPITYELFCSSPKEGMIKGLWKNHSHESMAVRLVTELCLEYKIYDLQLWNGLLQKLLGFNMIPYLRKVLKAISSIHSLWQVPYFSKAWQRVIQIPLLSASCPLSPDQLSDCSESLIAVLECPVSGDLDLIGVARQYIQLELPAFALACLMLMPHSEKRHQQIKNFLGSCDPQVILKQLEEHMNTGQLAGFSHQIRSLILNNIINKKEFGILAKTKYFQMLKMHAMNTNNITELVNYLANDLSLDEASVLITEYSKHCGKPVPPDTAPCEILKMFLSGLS
UniProt P49840: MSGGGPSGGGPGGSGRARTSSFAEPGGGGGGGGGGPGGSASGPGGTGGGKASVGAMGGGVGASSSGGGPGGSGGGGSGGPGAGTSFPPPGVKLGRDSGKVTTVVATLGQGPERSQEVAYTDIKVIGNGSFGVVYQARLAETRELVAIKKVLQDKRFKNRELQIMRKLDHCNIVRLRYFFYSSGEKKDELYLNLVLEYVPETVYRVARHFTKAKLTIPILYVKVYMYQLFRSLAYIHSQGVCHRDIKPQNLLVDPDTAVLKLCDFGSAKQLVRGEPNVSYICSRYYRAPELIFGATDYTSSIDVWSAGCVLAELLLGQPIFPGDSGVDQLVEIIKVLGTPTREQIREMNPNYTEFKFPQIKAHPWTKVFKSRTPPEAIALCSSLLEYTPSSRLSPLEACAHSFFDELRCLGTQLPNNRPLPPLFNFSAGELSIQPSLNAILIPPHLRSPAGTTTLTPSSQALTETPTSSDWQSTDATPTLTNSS
UniProt P40227, whole entry: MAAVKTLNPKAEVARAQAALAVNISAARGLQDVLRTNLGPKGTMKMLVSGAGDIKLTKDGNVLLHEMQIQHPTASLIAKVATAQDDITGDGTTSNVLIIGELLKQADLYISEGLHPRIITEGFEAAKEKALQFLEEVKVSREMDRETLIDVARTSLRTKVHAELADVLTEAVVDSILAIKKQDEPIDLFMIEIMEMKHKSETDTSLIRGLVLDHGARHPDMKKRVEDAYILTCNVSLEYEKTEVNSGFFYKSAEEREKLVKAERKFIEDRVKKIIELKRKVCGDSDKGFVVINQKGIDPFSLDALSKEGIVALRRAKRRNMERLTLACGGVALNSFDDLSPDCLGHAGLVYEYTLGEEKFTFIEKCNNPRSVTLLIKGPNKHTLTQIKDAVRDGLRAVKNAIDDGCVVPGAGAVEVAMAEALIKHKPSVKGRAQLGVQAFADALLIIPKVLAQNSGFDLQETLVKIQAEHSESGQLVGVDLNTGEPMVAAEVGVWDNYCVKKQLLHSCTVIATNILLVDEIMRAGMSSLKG
UniProt P36957: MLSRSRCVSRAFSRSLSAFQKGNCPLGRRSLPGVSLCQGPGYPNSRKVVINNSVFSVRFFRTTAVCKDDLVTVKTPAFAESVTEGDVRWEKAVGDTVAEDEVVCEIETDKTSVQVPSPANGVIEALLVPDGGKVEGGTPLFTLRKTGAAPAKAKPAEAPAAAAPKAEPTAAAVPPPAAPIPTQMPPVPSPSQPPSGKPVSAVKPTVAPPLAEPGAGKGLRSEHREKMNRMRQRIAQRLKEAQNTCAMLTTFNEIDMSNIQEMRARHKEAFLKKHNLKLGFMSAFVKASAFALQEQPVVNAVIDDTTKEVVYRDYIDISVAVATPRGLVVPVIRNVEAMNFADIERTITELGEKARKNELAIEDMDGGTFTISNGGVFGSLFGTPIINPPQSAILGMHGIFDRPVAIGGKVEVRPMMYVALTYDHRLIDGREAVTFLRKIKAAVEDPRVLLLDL
UniProt P51665: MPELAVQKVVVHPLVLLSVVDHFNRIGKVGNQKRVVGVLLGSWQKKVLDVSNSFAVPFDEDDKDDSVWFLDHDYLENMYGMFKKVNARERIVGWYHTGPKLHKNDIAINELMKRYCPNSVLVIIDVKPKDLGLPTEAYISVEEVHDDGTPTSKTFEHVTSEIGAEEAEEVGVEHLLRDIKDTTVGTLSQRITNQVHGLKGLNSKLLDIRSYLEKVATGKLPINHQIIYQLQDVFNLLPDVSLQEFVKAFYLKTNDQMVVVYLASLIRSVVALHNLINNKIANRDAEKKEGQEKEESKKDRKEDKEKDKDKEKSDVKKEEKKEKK
UniProt P36404: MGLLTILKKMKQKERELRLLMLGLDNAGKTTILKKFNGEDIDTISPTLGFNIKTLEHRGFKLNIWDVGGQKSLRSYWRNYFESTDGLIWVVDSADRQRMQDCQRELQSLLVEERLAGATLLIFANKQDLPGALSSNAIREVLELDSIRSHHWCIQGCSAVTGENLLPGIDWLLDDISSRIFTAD
UniProt P36915, whole entry: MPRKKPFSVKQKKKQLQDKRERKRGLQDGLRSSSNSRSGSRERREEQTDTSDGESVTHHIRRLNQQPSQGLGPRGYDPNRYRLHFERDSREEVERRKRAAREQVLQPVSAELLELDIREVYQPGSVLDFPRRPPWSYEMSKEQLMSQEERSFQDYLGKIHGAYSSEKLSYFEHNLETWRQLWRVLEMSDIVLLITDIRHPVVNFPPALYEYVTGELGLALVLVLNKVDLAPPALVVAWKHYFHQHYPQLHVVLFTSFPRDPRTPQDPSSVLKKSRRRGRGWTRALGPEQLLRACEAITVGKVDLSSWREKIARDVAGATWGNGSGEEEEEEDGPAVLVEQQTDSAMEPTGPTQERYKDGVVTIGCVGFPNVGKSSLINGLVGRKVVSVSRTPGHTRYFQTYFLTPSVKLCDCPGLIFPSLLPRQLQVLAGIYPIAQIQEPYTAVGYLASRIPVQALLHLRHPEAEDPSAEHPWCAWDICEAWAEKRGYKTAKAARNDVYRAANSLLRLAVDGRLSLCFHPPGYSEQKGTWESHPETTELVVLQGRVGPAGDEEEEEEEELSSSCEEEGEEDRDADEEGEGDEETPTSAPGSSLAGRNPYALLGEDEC
UniProt P51148: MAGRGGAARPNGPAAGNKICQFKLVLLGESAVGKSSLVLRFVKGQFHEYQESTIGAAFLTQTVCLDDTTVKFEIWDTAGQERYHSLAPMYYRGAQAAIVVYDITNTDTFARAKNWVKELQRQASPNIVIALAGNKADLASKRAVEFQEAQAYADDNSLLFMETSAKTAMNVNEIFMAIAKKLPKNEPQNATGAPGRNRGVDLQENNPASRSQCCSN

Compound: Nc1ncnc2c1ncn2[C@@H]1O[C@H](COP(=O)(O)OP(=O)(O)OP(=O)(O)O)[C@@H](O)[C@H]1O [adenosine triphosphate]
Assay: NP40-soluble protein abundance relative to vehicle (solubility fold change) (ratio); higher = more soluble protein in presence of ATP
How it was run: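 In three independent experiments, Jurkat crude lysate made by Dounce homogenisation was treated for 10 min at room temperature and then 3 min at 37 °C with eight concentrations ranging from 0.1 to 10 mM. It was then solubilised with 0.8% NP40 plus benzonase for 60 min at 4 °C and ultracentrifuged. The supernatant was TMT-labelled for LC-MS/MS, and each value is the fold change against the detergent-processed vehicle for the same replicate, using vsn-normalised intensities.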

Target	NP40-soluble protein abundance (concentration: 1mM)	NP40-soluble protein abundance (concentration: 2mM)	NP40-soluble protein abundance (concentration: 4mM)	NP40-soluble protein abundance (concentration: 6mM)	NP40-soluble protein abundance (concentration: 8mM)	NP40-soluble protein abundance (concentration: 10mM)
IDH2 (UniProt P48735)	0.905 ± 0.12	0.942 ± 0.015	0.911 ± 0.037	0.876 ± 0.13	0.899 ± 0.12	0.929 ± 0.063
UniProt P41229 and related entries	0.999 ± 0.041	1.02 ± 0.063	1 ± 0.011	0.996 ± 0.042	0.988 ± 0.027	1.01 ± 0.046
KNTC1 (UniProt P50748)	1.07 ± 0.11	1.01 ± 0.082	1.01 ± 0.072	0.932 ± 0.054	1 ± 0.026	0.969 ± 0.051
RASSF2 (UniProt P50749)	0.993 ± 0.066	1.04 ± 0.069	1.03 ± 0.037	0.975 ± 0.088	1.04 ± 0.045	1.01 ± 0.034
UniProt P49840	0.943 ± 0.057	0.915 ± 0.044	0.877 ± 0.037	0.9 ± 0.056	0.899 ± 0.078	0.9017 ± 0.0066
CCT6A (UniProt P40227)	1.04 ± 0.24	0.87 ± 0.2	0.898 ± 0.1	0.697 ± 0.18	0.902 ± 0.082	0.75 ± 0.18
GCLM (UniProt P48507)	0.9355 ± 0.0039	0.9519 ± 0.0088	0.902 ± 0.016	0.929 ± 0.054	0.891 ± 0.029	0.922 ± 0.025
UBA7 (UniProt P41226)	1.01 ± 0.062	1.01 ± 0.033	1.04 ± 0.085	1.04 ± 0.046	0.999 ± 0.085	0.9871 ± 0.0038
UniProt P48960 and related entries	0.961 ± 0.045	0.97 ± 0.026	0.954 ± 0.032	0.999 ± 0.049	0.949 ± 0.025	0.897 ± 0.055
RFX3 (UniProt P48380)	1.04 ± 0.057	0.988 ± 0.052	1 ± 0.021	1.02 ± 0.011	1.03 ± 0.078	1.01 ± 0.048
DLST (UniProt P36957)	1.07 ± 0.11	0.986 ± 0.12	0.97 ± 0.15	1.06 ± 0.29	1.02 ± 0.22	1.04 ± 0.19
HSPA13 (UniProt P48723)	1.03 ± 0.032	1.02 ± 0.039	1.07 ± 0.079	1.04 ± 0.052	1.01 ± 0.07	1.01 ± 0.068
ALDH9A1 (UniProt P49189)	1.01 ± 0.049	0.992 ± 0.061	0.967 ± 0.035	0.975 ± 0.06	0.982 ± 0.049	0.988 ± 0.051
MAGEA9 (UniProt P43362)	0.946 ± 0.12	0.964 ± 0.056	0.933 ± 0.057	0.938 ± 0.092	1.02 ± 0.16	0.949 ± 0.047
CCT4 (UniProt P50991)	0.911 ± 0.082	0.809 ± 0.075	0.798 ± 0.037	0.795 ± 0.12	0.835 ± 0.073	0.795 ± 0.061
UniProt P42331-4|P42331	0.97 ± 0.034	0.984 ± 0.029	0.983 ± 0.03	0.996 ± 0.025	0.953 ± 0.029	0.959 ± 0.021
UniProt P51531 and related entries	1.09 ± 0.072	1.07 ± 0.059	1.09 ± 0.072	1.16 ± 0.12	1.09 ± 0.089	1.13 ± 0.089
UniProt P52789 and related entries	1.01 ± 0.033	0.988 ± 0.03	0.988 ± 0.017	0.949 ± 0.045	0.991 ± 0.015	0.988 ± 0.016
PPOX (UniProt P50336)	0.999 ± 0.15	0.923 ± 0.14	0.967 ± 0.097	0.894 ± 0.18	1.06 ± 0.14	0.935 ± 0.063
UniProt P42684 and related entries	1.01 ± 0.077	0.984 ± 0.091	0.929 ± 0.12	0.951 ± 0.14	0.87 ± 0.095	0.91 ± 0.17
UniProt P52888 and related entries	0.989 ± 0.036	0.962 ± 0.041	0.953 ± 0.037	0.942 ± 0.077	0.97 ± 0.021	0.933 ± 0.039
CRKL (UniProt P46109)	0.967 ± 0.054	0.986 ± 0.027	0.968 ± 0.016	0.968 ± 0.026	0.961 ± 0.013	0.961 ± 0.015
UniProt P41223	1.04 ± 0.049	1.06 ± 0.024	1.1 ± 0.063	1.09 ± 0.075	1.18 ± 0.064	1.18 ± 0.036
PSMD7 (UniProt P51665)	0.973 ± 0.059	0.914 ± 0.036	0.875 ± 0.033	0.913 ± 0.05	0.918 ± 0.038	0.897 ± 0.03
UniProt P52306 and related entries	0.901 ± 0.089	0.906 ± 0.077	0.873 ± 0.078	0.873 ± 0.1	0.892 ± 0.076	0.909 ± 0.066
ARL2 (UniProt P36404)	1.03 ± 0.082	1.03 ± 0.083	0.99 ± 0.049	0.962 ± 0.11	1 ± 0.093	0.997 ± 0.072
MTIF2 (UniProt P46199)	1.04 ± 0.039	1.04 ± 0.038	0.986 ± 0.046	0.9388 ± 0.0065	0.968 ± 0.073	0.976 ± 0.035
GNL1 (UniProt P36915)	1.03 ± 0.014	1.03 ± 0.023	1.03 ± 0.022	1.02 ± 0.053	1.05 ± 0.029	1.01 ± 0.034
UniProt P51148 and related entries	1.01 ± 0.077	1.02 ± 0.075	0.977 ± 0.029	0.946 ± 0.075	0.974 ± 0.073	1 ± 0.087
FDFT1 (UniProt P37268)	1.03 ± 0.11	1.02 ± 0.065	0.99 ± 0.064	0.936 ± 0.12	0.99 ± 0.075	0.967 ± 0.048

2 consecutive records already listed:
Target	NP40-soluble protein abundance (concentration: 1mM)	NP40-soluble protein abundance (concentration: 2mM)	NP40-soluble protein abundance (concentration: 4mM)	NP40-soluble protein abundance (concentration: 6mM)	NP40-soluble protein abundance (concentration: 8mM)	NP40-soluble protein abundance (concentration: 10mM)
UBA7 (UniProt P41226)	1.01 ± 0.062	1.01 ± 0.033	1.04 ± 0.085	1.04 ± 0.046	0.999 ± 0.085	0.9871 ± 0.0038
UniProt P48960 and related entries	0.961 ± 0.045	0.97 ± 0.026	0.954 ± 0.032	0.999 ± 0.049	0.949 ± 0.025	0.897 ± 0.055
